Data reported in patent publication US9744191B2, “Antimicrobial compositions and methods” (Yale University, priority 2012, dated 2017).
At least one structure is not confirmed: it was looked up by name or label, or the drawing left a doubt.

Test system: Saccharomyces cerevisiae MYH500
Experiment: Growth assays for antifungal compounds combined with fluoride: S. cerevisiae
Format: cell-based
Settings: addition of fluoride; data not shown
Protocol: Model Organism: Saccharomyces cerevisiae MYH500 [Genotype: his3-del200, leu2-3, ura3-52, lys2-801, trp1-1, gal2]
Methods: • 1. Pick an isolated yeast colony (S. cerevisiae MYH500) from a plate, inoculate into 2 mL YPD medium in a 14 mL snap-cap tube and grow for 12 h at 30° C. on a shaker (200 rpm). The O.D.600 of the culture should be approximately 1.30. • 2. Two growth methods are used. (i) If culturing cells in 14 mL snap-cap tubes, dilute the cells 1:3 (1 vol. of 12 hr cell culture plus 2 vol. medium). Then, inoculate 2 mL YPD medium with 20 μL of 1/3 diluted cells (1% inoculation). […] (ii) For growth curve measurements, culture cells in a honeycomb 2 plate (Oy Growth Curves Ab Ltd) with 400 μL of medium inoculated with 8 μL of 1:6 diluted cells (1% inoculation). […] Supplement a fungicide and/or fluoride in the culture as necessary for each experiment.

## CCC(C)n1ncn(-c2ccc(N3CCN(c4ccc(OCC5COC(Cn6cncn6)(c6ccc(Cl)cc6Cl)O5)cc4)CC3)cc2)c1=O (stereo not shown) [itraconazole]
  effect of fluoride on function of the antifungal: failed to be improved by the addition of fluoride
